This note sets out measurements from the supplement of paper PMC10735217.

The test has as its system HEK293A TEAD-LUC reporter. As to the kind of experiment: TEAD-luciferase reporter activity (YAP activation), robust Z score vs plate; higher = stronger YAP/TEAD activation. The following applies: 24 h.

This is one part of the list. Single values are uncertain here, since repeats match poorly.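 Human kidney-derived cells stably carry a construct in which eight TEAD-binding elements drive luciferase, measured by luminescence in a drug-repurposing library screen. A hit is any compound whose signal exceeds the plate mean by more than five robust Z scores.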

`CC(C)N(CCC(CCN1CCCCC1)(C(N)=O)c1ccccc1Cl)C(C)C` (stereo unspecified) [disobutamide]: the TEAD-luciferase reporter activity (compound concentration: 200 nM) is inactive: -0.446, the TEAD-luciferase reporter activity (compound concentration: 2 uM) was inactive: 1.96 and the TEAD-luciferase reporter activity (compound concentration: 10 uM) was inactive: -0.976.
In the same order, the values of `COC(=O)CCNC(=O)C1CSC(C)N1` (stereo unspecified) are inactive: 0.432, inactive: -1.1 and inactive: -0.0126.
In the same order, the values of `NC(CO)(CO)CCc1ccc(Sc2cccc(OCc3ccccc3)c2)cc1Cl` are inactive: 3.3, inactive: -1.27 and inactive: 1.65.
In the case of `CC(C)=CCC/C(C)=C/CC/C(C)=C/CCC(=O)OC/C=C(\C)CCC=C(C)C`, the TEAD-luciferase reporter activity by setting is: (compound concentration: 200 nM) inactive: -0.739; (compound concentration: 2 uM) inactive: 0.231; (compound concentration: 10 uM) inactive: 2.28.
In the same order, the values of `CNCc1ccc(-c2[nH]c3cc(F)cc4c3c2CCNC4=O)cc1` [rucaparib] are inactive: 0.641, inactive: 0.443 and inactive: 1.5.
In the same order, the values of `Cc1c(-c2ccccc2)oc2c(C(=O)OC(C)(C)CN3CCCCC3)cccc2c1=O` are inactive: -0.222, inactive: 0.417 and inactive: 0.343.
Turning to `Nc1nc(NC2CC2)c2ncn([C@H]3C=C[C@@H](COC(=O)CO)C3)c2n1` [Abacavir acetate], the TEAD-luciferase reporter activity was inactive: 1.61 (compound concentration: 200 nM), inactive: 0.221 (compound concentration: 2 uM) and inactive: -0.218 (compound concentration: 10 uM).
In the same order, the values of `COc1ccc2cc1Oc1cc3c(cc1OC)CC[N+](C)(C)[C@H]3Cc1ccc(cc1)Oc1c(OC)c(OC)cc3c1[C@@H](C2)[N+](C)(C)CC3` [Chondocurarine, derivative of] are inactive: -2.33, inactive: -1.41 and inactive: 2.58.
On to `C[C@@H]1C[C@H]2[C@@H]3CCC4=CC(=O)C=C[C@]4(C)[C@@]3(F)[C@@H](O)C[C@]2(C)[C@@]1(O)C(=O)CO`, for which the TEAD-luciferase reporter activity (compound concentration: 2 uM) was inactive: -1.58.
On to `C[C@@H]1C[C@H]2[C@@H]3CCC4=CC(=O)C=C[C@]4(C)[C@@]3(F)[C@@H](O)C[C@]2(C)[C@@]1(O)C(=O)CO` [Dexamethasone50-02-2], for which the TEAD-luciferase reporter activity was inactive: -0.391 (compound concentration: 200 nM) and inactive: 0.907 (compound concentration: 10 uM).
`Cc1c(OC(C)c2ccc(CC(C)C)cc2)ccc(C(=O)Nc2ccccc2OCCCC(=O)O)c1C` (stereo unspecified): the TEAD-luciferase reporter activity by setting is: (compound concentration: 200 nM) inactive: -1.33; (compound concentration: 2 uM) inactive: -0.268; (compound concentration: 10 uM) inactive: -0.738.
For `O=[N+]([O-])c1c(Cl)cccc1-c1c[nH]cc1Cl`, in that order: inactive: 0.634, inactive: -0.768 and inactive: 0.759.
In the same order, the values of `Cn1ncc(NCCN2CCC(c3noc4cc(F)ccc34)CC2)c(Cl)c1=O` are inactive: -0.099, inactive: -1 and inactive: -1.03.
Take `Cn1c(=O)oc2cc(-n3cc(C(=O)O)c(=O)n([C@@H]4CCc5c4cccc5C(F)(F)F)c3=O)ccc21`: the TEAD-luciferase reporter activity is, setting by setting: (compound concentration: 200 nM) inactive: 3.02; (compound concentration: 10 uM) inactive: -0.0362.
Regarding `CN1CC[C@@H](NC(=O)Nc2ccc(C#N)cc2)C[C@@H]1c1nc2ccccc2[nH]1` [glasdegib], the TEAD-luciferase reporter activity by setting is: (compound concentration: 200 nM) active: 5.54; (compound concentration: 2 uM) inactive: 1.84; (compound concentration: 10 uM) inactive: -1.09.
Take `CC[C@H](C)C(=O)O[C@H]1C[C@@H](C)C=C2C=C[C@H](C)[C@H](CC[C@@H]3C[C@@H](O)CC(=O)O3)[C@H]21`: the TEAD-luciferase reporter activity by setting is: (compound concentration: 200 nM) inactive: 2.6; (compound concentration: 10 uM) inactive: -1.8.
In the case of `CC[C@H](C)C(=O)O[C@H]1C[C@@H](C)C=C2C=C[C@H](C)[C@H](CC[C@@H]3C[C@@H](O)CC(=O)O3)[C@H]21` [lovastatin, LovaDerm], under “compound concentration: 2 uM”, the TEAD-luciferase reporter activity is inactive: -1.61.
`CC(=O)c1ccc(C#C[C@@]2(O)CC[C@@]3(C)[C@@H](CC[C@@H]4[C@@H]3CC[C@]3(C)[C@@H](C(C)=O)CC[C@@H]43)C2)cc1`: the TEAD-luciferase reporter activity by setting is: (compound concentration: 200 nM) inactive: -0.279; (compound concentration: 2 uM) inactive: -1.1; (compound concentration: 10 uM) inactive: 3.7.
In the same order, the values of `C[N+]1(C)C2CCC1CC(OC(=O)C(O)c1ccccc1)C2` (stereo unspecified) are inactive: -0.846, inactive: -0.136 and inactive: -0.68.
For `O=c1[nH]c(=O)n([C@@H]2O[C@H](CO)[C@@H](O)[C@H]2O)cc1/C=C/Br`, in that order: inactive: -1.22, inactive: -0.326 and inactive: -1.07.
For `CC(=O)NNC(=O)N1Cc2ccccc2Oc2ccc(Cl)cc21`, in that order: inactive: -0.688, inactive: 0.473 and inactive: -0.863.
Regarding `CCOC(=O)CCC(=O)O[C@H]1[C@H](O[C@@H]2[C@@H](C)[C@H](O[C@H]3C[C@@](C)(OC)[C@@H](O)[C@H](C)O3)[C@@H](C)C(=O)O[C@H](CC)[C@@](C)(O)[C@H](O)[C@@H](C)C(=O)[C@@](C)(F)C[C@@]2(C)O)O[C@H](C)C[C@@H]1N(C)C`, the TEAD-luciferase reporter activity was inactive: -0.612 (compound concentration: 200 nM), inactive: -0.819 (compound concentration: 2 uM) and inactive: 1.44 (compound concentration: 10 uM).
`CC(=O)Oc1ccccc1C(=O)Nc1ncc([N+](=O)[O-])s1`: the TEAD-luciferase reporter activity was inactive: 1.32 (compound concentration: 200 nM), inactive: 3.13 (compound concentration: 2 uM) and active: 5.01 (compound concentration: 10 uM).
In the same order, the values of `Cc1ccccc1NC(=O)Nc1ccc(CC(=O)N[C@@H](CC(C)C)C(=O)N[C@@H](CC(=O)O)C(=O)N[C@H](C(=O)O)C(C)C)cc1` are inactive: -0.825, inactive: -0.711 and inactive: 0.938.
In the same order, the values of `C[C@H]1C[C@H]2[C@@H]3C[C@H](F)C4=CC(=O)C=C[C@]4(C)[C@@]3(F)[C@@H](O)C[C@]2(C)[C@@]1(O)C(=O)CO` [Diflorasone] are inactive: 0.529, inactive: 0.735 and inactive: -0.000744.
`CC(=O)OC1CC2(C)C(CC(O)C3C4(C)CCC(O)C(C)C4CCC32C)/C1=C(/CCC=C(C)C)C(=O)O` (stereo unspecified) [fusidic acid]: for the setting “compound concentration: 2 uM”, the TEAD-luciferase reporter activity is inactive: -1.06.
With `CC(=O)OC1CC2(C)C(CC(O)C3C4(C)CCC(O)C(C)C4CCC32C)/C1=C(/CCC=C(C)C)C(=O)O` (stereo unspecified) [fusidic acid, Cempra], the TEAD-luciferase reporter activity reads like this: (compound concentration: 200 nM) active: 5.61; (compound concentration: 10 uM) inactive: -0.221.
